# Data reported in EP4679096A1, “BIOMARKERS AND METHOD FOR ESTIMATING BRAIN NEURODEGENERATIVE CONDITION” (SHIMADZU CORPORATION, priority 2023, dated 2024).
# Assay: Ng peptides in plasma by affinity purification (anti-Ng antibody beads) and MALDI-TOF MS; comparison of CN, MCI, AD_Aβ+ and nonAD_Aβ- groups
# Set-up: species or system human
# Text: At the National Center for Geriatrics and Gerontology, 161 plasma samples and clinical diagnostic information such as amyloid PET findings, FDG-PET findings, MRI findings and MMSE findings (Mini Mental State Examination) were acquired.
# The subject is a case diagnosed with normal cognitive function (CN), mild cognitive impairment (MCI), Alzheimer's disease (AD), and dementia other than Alzheimer's disease (nonAD). A group of AD and nonAD was defined as a group of dementia.
# PiB-PET images of the brains of the subjects were acquired in order to determine whether AB accumulation in the brain was positive or negative. A subject in which the accumulation amount of PiB in the cerebral cortex was larger than or equal to the accumulation amount of PiB in the non-specific white matter by visual interpretation evaluation by a nuclear medicine specialist was determined to be positive. A subject who had only non-specific accumulation in the white matter and hardly accumulated in the cortex was determined to be negative. The PiB accumulation average value (SUVR: Standard Uptake Value Ratio) quantified the PiB accumulation in the cortex, and the accumulation ratio of the cerebrum was determined on the basis of the cerebellum. AD cases confirmed to be AB-positive in amyloid PET were defined as AD_Aβ+ (N = 39), and nonAD cases confirmed to be AB-negative in amyloid PET were defined as nonAD_Aβ- (N = 41).
# DMSO (dimethyl sulfoxide) was mixed with a first buffer solution (0.1% n-undecyl-8-D-maltoside (UDM), 800 mM GlcNAc, 100 mM Tris-HCl, 300 mM NaCl; pH 7.4) containing a surfactant to prepare DMSO at a DMSO concentration of 20 (v/v)%. Subsequently, Ng45-75 (SIL-Ng45-75) and Ng24-75 (SIL-Ng24-75) labeled with a stable isotope as an internal standard were mixed with the first buffer so as to be 50 pM, thereby preparing an internal standard containing buffer. Subsequently, 200 µL of human plasma was mixed with 200 µL of an internal standard containing buffer, and the mixture was allowed to stand on ice for 5 to 60 minutes. Thus, a plasma sample was prepared. In SIL-Ng45-75 and SIL-Ng24-75, the carbon atoms and nitrogen atoms of some amino acids of Pro, Val, and Ala are substituted with ^13C and ^15N, respectively.
# Clone NG2 (manufactured by BioLegend, Inc.) of an anti-Ng antibody (IgG1) having 52-63 residues of human neurogranin (Ng) as an epitope was prepared. To 100 µg of an anti-Ng antibody, 5.5 mg of magnetic beads (Dynabeads M-270 Epoxy) were added in an immobilization buffer (0.1 M phosphate buffer containing 1.5 M ammonium sulfate; pH 7.4) at 37°C for 16 to 24 hours. Thus, antibody beads as an antibody-immobilizing carrier were produced.
# Plasma samples were mixed with the antibody beads and incubated at 4°C for 1 hour. The antibody beads were then washed once with 100 µL of the first wash buffer (0.05% UDM, 50 mM Tris-HCl, 150 mM NaCl; pH7.4) and once with 50 µL of 50 mM ammonium acetate buffer. Thereafter, the antibody beads were brought into contact with the first acidic solution (0.05% UDM, 50 mM glycine buffer; pH 2.8) to elute the Ng peptide into the first acidic solution. Accordingly, a first eluate containing the Ng peptide was obtained.
# The first eluate was mixed with neutral buffer (0.1% UDM, 800 mM GlcNAc, 300 mM Tris-HCl, 300 mM NaCl; pH 7.4) to give a purified solution.
# Purification solution was mixed with antibody beads and incubated at 4°C for 1 h. The antibody beads were then washed twice with 50 µL of the second washing buffer (0.05% UDM, 50 mM Tris-HCl, 150 mM NaCl; pH 7.4), washed once with 50 µL of 50 mM ammonium acetate buffer, and washed once with 30 µL of water. Thereafter, the antibody beads were brought into contact with a second acidic solution (70% (v/v) acetonitrile aqueous solution containing 5 mM hydrochloric acid and 0.1 mM methionine, 50 nM BSA) to elute the Ng peptide into the second acidic solution. Accordingly, a second eluate containing the Ng peptide was obtained. […]
# [1] = ratio of medians (times CN), Experimental Example 1 correction
# [2] = result in words, plasma corrected NI
substance,measurement,setting,value
"Ng7-55: neurogranin fragment peptide, No. 26 (NACSKPDDDILDIPLDDPGANAAAAKIQASFRGHMARKKIKSGERGRKG; UniProt Q92686 7-55, looked up, fragment)",Median for each group AD,"plasma NI, corrected as in Experimental Example 1, AD_Aβ+ group per text",0.152
same,Median for each group MCI,"plasma NI, corrected as in Experimental Example 1, MCI group",0.126
same,Median for each group CN,"plasma NI, corrected with sum of 10 monovalent + 2 divalent Ng peptide ions (Ng50-75, Ng45-75 not corrected), CN group",0.137
same,Difference in median for each group CN vs MCI,[1],0.92
same,Difference in median for each group CN vs nonAD_Aβ -,[1],1.02
same,median values in the AD_Aβ+ group than in the CN group,[2],higher
same,median values in the nonAD_Aβ- group than in the CN group,[2],higher
